Results on 36 molecules are retold here after PubChem BioAssay AID1487 (National Center for Advancing Translational Sciences (NCATS), 2009).

This is one part of the list. These are further read-outs of the screen, such as a control signal, another cell line or another target. No call is given for them. Compounds called inactive in the main read-out are mostly missing here. Words in brackets tell the shape of the fitted curve; partial curves, single points and poor fits give uncertain potencies.

The assay in a line: qHTS Assay for Modulators of Lamin A Splicing. As to conditions: HeLa LMNA splicing GFP/RFP minigene ratio, 48 h. The procedure, abridged:
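S3 HeLa cells stably expressing lamin A-EGFP splicing minigene plus DsRed2, 600 cells/well, 48 h compound exposure at 37C. Laser-scanning cytometry; analysed as GFP (500-530 nm)/RFP (575-640 nm) total intensity ratio; 0.5% DMSO vehicle.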
(In qHTS, concentration-response curves come from the screen itself.)

Setting [1] is: measured here: GFP splicing reporter channel.
Setting [2] is: measured here: RFP viability control channel.

Usually AC50 stands for the concentration giving half of the maximal activity seen. On to `CCOC(=O)C(=O)c1csc(NC(=O)CCSc2ccc(C)cc2)n1`, for which the AC50 under setting [1] is 0.01 µM [rising, partial curve, poor fit].

Take `Cc1cc2cc(CNC(=S)Nc3ccc(OC(F)(F)F)cc3)ccc2n1C`: the AC50 reads like this: under setting [1], 31.6 µM [rising, single point]; under setting [2], 31.6 µM [rising, single point].

With `CC(C)CCNC(=O)C(c1ccc(O)cc1)N(Cc1cccs1)C(=O)C1COc2ccccc2O1` (centres undefined), the AC50 is, setting by setting: under setting [1], 35.5 µM [falling, single point]; under setting [2], 31.6 µM [falling, single point].

For `COC(=O)c1ccc2c(c1)NC(=O)C(N1CCCCC1)S2` (centres undefined), the AC50 reads like this: under setting [1], 8.91 µM [rising, partial curve, poor fit]; under setting [2], 20 µM [rising, partial curve].

Regarding `CCn1c(CN2CCCCCC2=O)nnc1SCc1cnc(-c2ccccc2)s1`, the AC50 under setting [2] was 17.8 µM [rising, single point].

On to `Cc1cc(/C=N/n2c(COc3ccccc3C)nc3ccccc3c2=O)c(O)c([N+](=O)[O-])c1`, for which, under setting [1], the concentration at half-maximal activity (AC50) is 0.00447 µM [falling, full curve, poor fit].

Regarding `Cc1ccc(NS(=O)(=O)c2cc3[nH]c(=O)c(=O)[nH]c3cc2C)cc1N(C)C`, the half-maximal activity concentration (AC50) under setting [2] is 0.158 µM [rising, full curve, poor fit].

As for `Cc1ccc(C)c(NC(=O)CSc2nnc(-c3cc4occc4n3C)n2-c2ccccc2C)c1`, the AC50 under setting [1] is 0.0891 µM [falling, full curve, poor fit].

With `CCCCn1c(SCC(=O)Nc2ccc(OCC)cc2)nc2ccsc2c1=O`, the AC50 is 5.62 µM [falling, single point] under setting [1] and 2.82 µM [falling, full curve, poor fit] under setting [2].

As for `CCc1ccc(NC(=O)CN2CCN(C3CCCCC3)C(=O)C2=O)cc1`, the AC50 under setting [2] is 10 µM [rising, partial curve].

As for `Cc1ccc(Oc2cc(NC(=O)CCCn3nc(C)c([N+](=O)[O-])c3C)cc([N+](=O)[O-])c2)cc1`, the AC50 under setting [2] was 20 µM [rising, single point].

Consider `C=CCN1C(=O)CSC1=Nc1ccc(O)cc1`, for which the AC50 under setting [2] is 12.6 µM [rising, single point].

As for `CCc1nc2ccc(C(=O)NCc3ccc(N(C)C)cc3)cc2nc1CC`, the AC50 under setting [1] is 6.31 µM [rising, partial curve, poor fit].

With `CCc1cc(C(=O)NNC(=S)Nc2cc(C)ccc2C)cs1`, the AC50 under setting [2] was 35.5 µM [rising, single point].

With `O=C1S/C(=C/c2ccccc2)C(=O)N1CC(O)Cn1c2ccccc2c2ccccc21` (centres undefined), under setting [2], the AC50 is 10 µM [rising, partial curve, poor fit].

For the molecule `CN(C)CCNC(=O)CN1N=C(c2ccccc2)CCC1=O`, the AC50 was 4.47 µM [rising, partial curve, poor fit] under setting [1] and 0.00398 µM [rising, full curve, poor fit] under setting [2].

On to `OC(COCC(F)(F)C(F)(F)C(F)(F)C(F)F)Cn1c2ccc(Cl)cc2c2cc(Cl)ccc21` (centres undefined), for which the AC50 under setting [1] was 20 µM [falling, single point].

Take `O=C(O)c1ccccn1`: the AC50 under setting [2] was 35.5 µM [falling, single point].

For `Cc1ccc(-c2csc(NC(=O)CSc3nc4ccccc4[nH]3)n2)cc1`, the AC50 under setting [2] is 22.4 µM [rising, single point].

`Cc1c(N=CN2CCOCC2)c(=O)n(C)c(=O)n1C`: the AC50 reads like this: under setting [1], 0.0112 µM [rising, full curve, poor fit]; under setting [2], 0.0126 µM [rising, full curve, poor fit].

Regarding `Cc1sc2ncnc(N3CCN(c4ncccn4)CC3)c2c1C`, under setting [2], the AC50 was 20 µM [rising, single point].

With `CNC(=S)N/N=C/c1cn(CCOc2ccc(OC)cc2)c2ccccc12`, the AC50 under setting [2] was 2.24 µM [rising, partial curve].

With `O/N=C/c1cc(Cl)ccc1OCc1cccc2ccccc12`, the half-maximal activity concentration (AC50) reads like this: under setting [1], 17.8 µM [falling, partial curve]; under setting [2], 15.8 µM [falling, partial curve].

For the molecule `c1nnc(-c2ccc3c(c2)OCO3)o1`, the AC50 is, setting by setting: under setting [1], 1.26 µM [rising, partial curve, poor fit]; under setting [2], 1.26 µM [rising, single point].

Consider `CC(C)C(c1nnnn1C1CCCC1)N1CCN(c2ccccc2F)CC1` (centres undefined), for which, under setting [1], the AC50 is 11.2 µM [falling, partial curve, poor fit].

For `Cc1cc(Br)c(S(=O)(=O)NCCN2CCOCC2)cc1C`, the AC50 under setting [1] was 35.5 µM [rising, single point].

On to `COc1ccccc1OCCn1c(C(C)O)nc2ccccc21` (centres undefined), for which the AC50 reads like this: under setting [1], 10 µM [rising, partial curve, poor fit]; under setting [2], 10 µM [rising, partial curve].

`Cc1nn(-c2ccc(N3CCOCC3)nn2)c(C)c1CCC(=O)NCc1ccccc1`: the AC50 under setting [1] was 0.02 µM [falling, full curve, poor fit].

In the case of `Cc1cc(C)c(NC(=O)CSc2n[nH]c(-c3ccccc3Cl)n2)c(C)c1`, under setting [1], the AC50 is 0.708 µM [rising, single point].

As for `COc1cccc(OC)c1C(=O)NNC(=O)c1ccccc1-n1cccc1`, the AC50 under setting [1] was 0.0794 µM [rising, full curve, poor fit].

On to `Cc1[nH][nH]c(=O)c1C(c1c(C)[nH][nH]c1=O)c1cn(Cc2ccc(Cl)c(Cl)c2)c2ccccc12`, for which the AC50 by setting is: under setting [1], 35.5 µM [rising, single point]; under setting [2], 11.2 µM [rising, partial curve].

For `Nc1nc2ccc(C(=O)Nc3ccccc3)cc2s1`, the AC50 under setting [2] was 2 µM [rising, full curve, poor fit].

As for `Cc1ccc(C2=CC(c3ccccc3C)n3c(nc4ccccc43)N2)cc1` (centres undefined), the AC50 by setting is: under setting [1], 0.0141 µM [rising, full curve, poor fit]; under setting [2], 25.1 µM [rising, partial curve].

Take `Cc1ccc(NC(=O)CS(=O)CC(=O)N(CC(=O)NC2CCCC2)c2cccc(C)c2C)cc1` (centres undefined): the AC50 under setting [1] was 14.1 µM [rising, single point].

As to `COc1ccc(OC)c(C(C)NC(=O)Nc2cccc(C(C)=O)c2)c1` (centres undefined), the concentration at half-maximal activity (AC50) was 12.6 µM [falling, partial curve, poor fit] under setting [1] and 20 µM [falling, partial curve] under setting [2].

With `COc1ccccc1NC(=O)Cn1cnc2c(cnn2-c2ccccc2)c1=O`, the AC50 reads like this: under setting [1], 5.62 µM [rising, partial curve]; under setting [2], 12.6 µM [rising, partial curve].
